The other results are listed elsewhere or left out.
Assays:
Experiment in all cases: log2 fold change, soluble protein after heating vs DMSO (PISA); higher = thermal stabilisation; K562 lysate, 10 uM; active = over 0.2 and 3.5 SD of the protein, either way, in both replicates (recomputed)
nilotinib = compound: Cc1cn(-c2cc(NC(=O)c3ccc(C)c(Nc4nccc(-c5cccnc5)n4)c3)cc(C(F)(F)F)c2)cn1 [nilotinib]
Method in brief: (§1)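 Following dounce homogenisation of K562 pellets in PBS pH 7.4 with 1 mM MgCl2, crude extract at 1 mg/mL protein was incubated for 30 min with 10 μM compound. Aliquots were then heated for 3 min over 48°C-58°C and pooled, NP-40 was added to 0.5% at 4°C, and soluble protein was recovered as the supernatant at 21,000xg for 90 min. Channel-sum-equalised TMTpro 16plex LC-MS/MS quantified this protein. Each value, from duplicates, is a log-two fold change in thermal stability relative to solvent controls.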

Chains of the proteins cited; added tags and fusions are not shown. Lines headed by an entry give the natural chain unless they say otherwise; changes in a name come on top.
UniProt Q5BVD1: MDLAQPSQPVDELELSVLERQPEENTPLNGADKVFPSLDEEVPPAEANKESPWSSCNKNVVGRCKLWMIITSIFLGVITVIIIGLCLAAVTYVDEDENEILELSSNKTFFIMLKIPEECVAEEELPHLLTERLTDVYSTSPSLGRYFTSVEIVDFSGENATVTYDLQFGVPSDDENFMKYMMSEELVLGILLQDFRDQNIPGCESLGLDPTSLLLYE
UniProt O15164: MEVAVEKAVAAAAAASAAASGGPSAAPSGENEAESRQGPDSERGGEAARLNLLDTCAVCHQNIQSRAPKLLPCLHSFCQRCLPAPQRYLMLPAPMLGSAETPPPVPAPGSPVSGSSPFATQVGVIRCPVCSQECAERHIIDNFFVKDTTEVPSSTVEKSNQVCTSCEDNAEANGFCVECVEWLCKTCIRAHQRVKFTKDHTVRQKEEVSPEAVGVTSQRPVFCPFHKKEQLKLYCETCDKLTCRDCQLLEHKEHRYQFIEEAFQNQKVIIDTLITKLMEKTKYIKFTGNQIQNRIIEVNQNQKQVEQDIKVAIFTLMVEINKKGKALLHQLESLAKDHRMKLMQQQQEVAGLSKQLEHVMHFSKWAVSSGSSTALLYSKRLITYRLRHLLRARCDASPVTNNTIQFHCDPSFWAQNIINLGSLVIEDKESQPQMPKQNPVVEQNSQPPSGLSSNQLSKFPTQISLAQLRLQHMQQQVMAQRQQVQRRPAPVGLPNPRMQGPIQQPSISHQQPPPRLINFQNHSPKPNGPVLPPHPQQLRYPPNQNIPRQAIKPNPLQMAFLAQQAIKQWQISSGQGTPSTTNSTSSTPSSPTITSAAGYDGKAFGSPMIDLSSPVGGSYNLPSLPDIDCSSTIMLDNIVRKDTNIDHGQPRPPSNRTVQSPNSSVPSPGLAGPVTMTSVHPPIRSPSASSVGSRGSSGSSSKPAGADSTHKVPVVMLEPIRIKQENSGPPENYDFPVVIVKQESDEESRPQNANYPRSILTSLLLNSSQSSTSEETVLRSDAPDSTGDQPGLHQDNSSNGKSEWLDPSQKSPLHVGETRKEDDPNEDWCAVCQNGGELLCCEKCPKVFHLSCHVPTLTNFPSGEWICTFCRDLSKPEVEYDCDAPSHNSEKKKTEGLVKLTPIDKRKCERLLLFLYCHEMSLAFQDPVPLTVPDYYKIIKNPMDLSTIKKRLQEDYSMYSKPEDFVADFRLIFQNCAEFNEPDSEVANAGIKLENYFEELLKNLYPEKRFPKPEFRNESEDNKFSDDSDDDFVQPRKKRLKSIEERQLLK
UniProt Q9Y296, whole entry, looked up: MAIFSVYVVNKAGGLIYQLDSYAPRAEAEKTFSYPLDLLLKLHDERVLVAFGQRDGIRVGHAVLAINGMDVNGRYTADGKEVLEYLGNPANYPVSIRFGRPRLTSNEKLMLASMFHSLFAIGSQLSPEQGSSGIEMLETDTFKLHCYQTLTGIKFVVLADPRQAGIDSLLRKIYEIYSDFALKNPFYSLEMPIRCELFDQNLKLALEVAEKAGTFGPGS
UniProt O00635: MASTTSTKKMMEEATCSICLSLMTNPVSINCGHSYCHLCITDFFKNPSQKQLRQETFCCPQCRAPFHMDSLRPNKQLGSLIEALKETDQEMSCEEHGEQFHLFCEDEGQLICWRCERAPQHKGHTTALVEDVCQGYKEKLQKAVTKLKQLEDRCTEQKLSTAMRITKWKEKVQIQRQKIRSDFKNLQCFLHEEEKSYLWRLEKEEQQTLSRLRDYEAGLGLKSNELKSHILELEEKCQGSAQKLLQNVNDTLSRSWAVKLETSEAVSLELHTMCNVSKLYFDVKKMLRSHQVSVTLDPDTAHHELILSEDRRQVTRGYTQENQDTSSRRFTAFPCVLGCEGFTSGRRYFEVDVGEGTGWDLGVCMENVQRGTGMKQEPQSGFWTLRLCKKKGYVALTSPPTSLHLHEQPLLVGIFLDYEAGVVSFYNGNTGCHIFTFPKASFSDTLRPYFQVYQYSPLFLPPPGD
UniProt Q9C037: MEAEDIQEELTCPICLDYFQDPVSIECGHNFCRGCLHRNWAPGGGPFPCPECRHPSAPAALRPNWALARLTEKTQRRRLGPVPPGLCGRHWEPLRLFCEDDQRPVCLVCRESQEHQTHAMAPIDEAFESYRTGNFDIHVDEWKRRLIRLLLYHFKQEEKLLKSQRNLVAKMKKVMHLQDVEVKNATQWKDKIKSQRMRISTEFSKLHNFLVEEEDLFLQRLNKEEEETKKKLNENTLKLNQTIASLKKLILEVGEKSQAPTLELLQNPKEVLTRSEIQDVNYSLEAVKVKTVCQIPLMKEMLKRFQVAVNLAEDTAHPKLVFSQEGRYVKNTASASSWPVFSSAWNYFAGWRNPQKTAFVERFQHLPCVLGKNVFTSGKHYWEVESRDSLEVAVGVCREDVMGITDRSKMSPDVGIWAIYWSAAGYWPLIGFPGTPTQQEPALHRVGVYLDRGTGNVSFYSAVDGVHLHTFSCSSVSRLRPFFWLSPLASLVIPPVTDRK
UniProt Q9BUZ4: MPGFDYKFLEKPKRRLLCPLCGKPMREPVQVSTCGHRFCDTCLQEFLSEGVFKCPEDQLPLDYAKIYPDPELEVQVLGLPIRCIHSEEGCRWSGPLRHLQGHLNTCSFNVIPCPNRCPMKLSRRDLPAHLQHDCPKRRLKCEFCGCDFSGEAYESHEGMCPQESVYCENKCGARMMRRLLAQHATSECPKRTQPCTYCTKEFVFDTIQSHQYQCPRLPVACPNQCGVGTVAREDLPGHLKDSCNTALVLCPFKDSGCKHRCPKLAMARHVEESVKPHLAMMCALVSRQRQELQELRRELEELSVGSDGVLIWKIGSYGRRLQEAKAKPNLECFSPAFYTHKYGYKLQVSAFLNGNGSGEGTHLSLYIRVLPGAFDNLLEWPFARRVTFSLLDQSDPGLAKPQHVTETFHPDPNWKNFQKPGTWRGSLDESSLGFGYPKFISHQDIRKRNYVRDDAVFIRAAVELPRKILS
UniProt P48553, whole entry, looked up: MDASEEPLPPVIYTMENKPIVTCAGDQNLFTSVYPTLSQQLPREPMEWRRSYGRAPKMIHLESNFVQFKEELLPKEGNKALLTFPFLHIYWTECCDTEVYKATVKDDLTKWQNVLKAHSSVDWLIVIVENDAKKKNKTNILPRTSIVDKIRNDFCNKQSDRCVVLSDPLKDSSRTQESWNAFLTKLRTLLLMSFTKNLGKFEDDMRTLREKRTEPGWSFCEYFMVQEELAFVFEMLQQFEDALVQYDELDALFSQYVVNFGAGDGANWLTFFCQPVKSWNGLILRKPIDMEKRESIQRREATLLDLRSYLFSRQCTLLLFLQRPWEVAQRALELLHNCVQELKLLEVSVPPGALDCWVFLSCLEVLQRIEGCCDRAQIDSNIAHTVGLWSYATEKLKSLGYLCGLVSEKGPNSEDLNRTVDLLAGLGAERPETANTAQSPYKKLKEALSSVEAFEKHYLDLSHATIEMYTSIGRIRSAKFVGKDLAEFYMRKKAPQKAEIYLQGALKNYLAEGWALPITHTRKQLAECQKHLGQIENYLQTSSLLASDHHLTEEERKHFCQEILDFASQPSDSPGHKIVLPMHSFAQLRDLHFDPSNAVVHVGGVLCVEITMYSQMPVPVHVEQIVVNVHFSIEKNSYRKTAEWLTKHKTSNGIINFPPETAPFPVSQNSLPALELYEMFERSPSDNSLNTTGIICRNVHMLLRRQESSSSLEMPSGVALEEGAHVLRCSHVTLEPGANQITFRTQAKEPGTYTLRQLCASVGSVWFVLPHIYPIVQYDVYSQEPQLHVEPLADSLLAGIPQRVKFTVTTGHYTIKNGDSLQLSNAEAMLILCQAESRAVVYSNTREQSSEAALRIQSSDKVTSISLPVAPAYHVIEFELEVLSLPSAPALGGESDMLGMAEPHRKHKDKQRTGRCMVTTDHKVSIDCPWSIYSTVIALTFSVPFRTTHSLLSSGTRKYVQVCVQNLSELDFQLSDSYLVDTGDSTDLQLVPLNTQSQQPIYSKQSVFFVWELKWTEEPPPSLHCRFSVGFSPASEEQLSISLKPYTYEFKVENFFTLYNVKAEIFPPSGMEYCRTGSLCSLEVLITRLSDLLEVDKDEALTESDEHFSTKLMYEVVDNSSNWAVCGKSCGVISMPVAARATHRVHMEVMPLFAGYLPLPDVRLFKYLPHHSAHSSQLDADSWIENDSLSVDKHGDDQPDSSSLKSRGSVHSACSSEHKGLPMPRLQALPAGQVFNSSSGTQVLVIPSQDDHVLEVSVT
UniProt P43897: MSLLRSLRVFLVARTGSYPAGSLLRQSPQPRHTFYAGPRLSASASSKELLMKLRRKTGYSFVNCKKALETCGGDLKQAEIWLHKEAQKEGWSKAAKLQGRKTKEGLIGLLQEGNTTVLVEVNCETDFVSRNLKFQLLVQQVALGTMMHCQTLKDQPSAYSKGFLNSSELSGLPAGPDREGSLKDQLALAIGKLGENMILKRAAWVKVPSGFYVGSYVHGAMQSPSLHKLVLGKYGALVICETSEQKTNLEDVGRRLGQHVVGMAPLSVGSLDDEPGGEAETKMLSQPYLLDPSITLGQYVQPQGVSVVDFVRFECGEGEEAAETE
UniProt Q13263: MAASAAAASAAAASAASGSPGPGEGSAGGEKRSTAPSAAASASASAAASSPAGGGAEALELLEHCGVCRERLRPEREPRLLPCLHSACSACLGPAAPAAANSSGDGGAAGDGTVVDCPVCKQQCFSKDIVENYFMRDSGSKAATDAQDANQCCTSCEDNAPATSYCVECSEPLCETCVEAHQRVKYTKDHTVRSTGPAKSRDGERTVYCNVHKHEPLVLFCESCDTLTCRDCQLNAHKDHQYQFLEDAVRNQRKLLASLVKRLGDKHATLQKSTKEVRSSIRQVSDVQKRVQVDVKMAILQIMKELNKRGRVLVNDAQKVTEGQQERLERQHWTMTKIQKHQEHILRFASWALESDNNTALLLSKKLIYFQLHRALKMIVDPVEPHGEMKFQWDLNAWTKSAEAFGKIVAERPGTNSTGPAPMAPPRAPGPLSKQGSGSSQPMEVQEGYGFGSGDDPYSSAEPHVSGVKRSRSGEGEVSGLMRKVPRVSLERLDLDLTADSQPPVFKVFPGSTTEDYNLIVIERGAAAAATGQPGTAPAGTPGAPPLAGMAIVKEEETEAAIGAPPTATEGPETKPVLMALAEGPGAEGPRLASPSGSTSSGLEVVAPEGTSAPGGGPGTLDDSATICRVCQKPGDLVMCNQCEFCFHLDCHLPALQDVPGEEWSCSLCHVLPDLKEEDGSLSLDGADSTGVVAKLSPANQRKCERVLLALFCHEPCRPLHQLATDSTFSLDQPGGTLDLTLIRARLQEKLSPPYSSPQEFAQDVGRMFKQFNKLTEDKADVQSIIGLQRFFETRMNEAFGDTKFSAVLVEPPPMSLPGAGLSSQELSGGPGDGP
UniProt Q92574: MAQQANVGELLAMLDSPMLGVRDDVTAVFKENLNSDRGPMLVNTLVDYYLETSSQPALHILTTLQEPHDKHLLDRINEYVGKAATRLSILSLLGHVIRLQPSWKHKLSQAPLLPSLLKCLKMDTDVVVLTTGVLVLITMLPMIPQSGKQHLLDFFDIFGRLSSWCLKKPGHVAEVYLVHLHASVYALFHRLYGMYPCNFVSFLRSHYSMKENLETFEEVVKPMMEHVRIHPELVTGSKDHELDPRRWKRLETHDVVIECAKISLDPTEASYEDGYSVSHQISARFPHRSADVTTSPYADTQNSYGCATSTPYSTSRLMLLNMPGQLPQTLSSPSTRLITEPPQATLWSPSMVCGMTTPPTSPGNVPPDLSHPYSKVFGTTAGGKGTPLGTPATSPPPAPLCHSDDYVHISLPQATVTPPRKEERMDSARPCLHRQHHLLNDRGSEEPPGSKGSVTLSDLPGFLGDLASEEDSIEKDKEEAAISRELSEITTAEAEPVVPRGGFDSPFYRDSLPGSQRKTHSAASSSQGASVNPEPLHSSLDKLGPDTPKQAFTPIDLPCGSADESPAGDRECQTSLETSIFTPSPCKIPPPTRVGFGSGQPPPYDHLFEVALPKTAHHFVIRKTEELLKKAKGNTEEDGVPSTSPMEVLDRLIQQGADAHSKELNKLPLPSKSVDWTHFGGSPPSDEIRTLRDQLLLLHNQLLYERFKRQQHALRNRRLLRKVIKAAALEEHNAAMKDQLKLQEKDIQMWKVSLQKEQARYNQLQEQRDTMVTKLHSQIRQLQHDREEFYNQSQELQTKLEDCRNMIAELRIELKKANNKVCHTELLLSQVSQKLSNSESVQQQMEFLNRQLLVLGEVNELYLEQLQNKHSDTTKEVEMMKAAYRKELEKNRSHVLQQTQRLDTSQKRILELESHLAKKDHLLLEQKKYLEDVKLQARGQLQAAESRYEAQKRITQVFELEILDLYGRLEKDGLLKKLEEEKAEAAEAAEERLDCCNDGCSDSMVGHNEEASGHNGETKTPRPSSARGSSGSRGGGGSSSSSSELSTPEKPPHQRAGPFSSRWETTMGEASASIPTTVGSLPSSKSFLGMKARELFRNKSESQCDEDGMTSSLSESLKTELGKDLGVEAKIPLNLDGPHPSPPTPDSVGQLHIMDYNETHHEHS

[1] = compound: Cc1nc(Nc2n[nH]c3c2CN(C(=O)N[C@H](CN(C)C)c2ccccc2)C3(C)C)c2sccc2n1
Method in brief: as §1

dasatinib = compound: Cc1nc(Nc2ncc(C(=O)Nc3c(C)cccc3Cl)s2)cc(N2CCN(CCO)CC2)n1 [dasatinib]
Method in brief: as §1

[2] = compound: Cc1ncc(-c2ccnc(Nc3ccc(S(C)(=O)=O)cc3)n2)n1C(C)C
Method in brief: as §1

[3] = compound: Cn1cc(-c2ccc3c(c2)CCN3C(=O)Cc2cccc(C(F)(F)F)c2)c2c(N)ncnc21
Method in brief: as §1

quisinostat = compound: Cn1cc(CNCC2CCN(c3ncc(C(=O)NO)cn3)CC2)c2ccccc21 [quisinostat]
Method in brief: as §1

tipifarnib = compound: Cn1cncc1[C@@](N)(c1ccc(Cl)cc1)c1ccc2c(c1)c(-c1cccc(Cl)c1)cc(=O)n2C [tipifarnib]
Method in brief: as §1

[4] = compound: NC(=O)Nc1cc(-c2cccc(F)c2)sc1C(=O)N[C@H]1CCCNC1
Method in brief: as §1

[5] = compound: NC(=O)c1cnc(N[C@@H]2CCCC[C@@H]2N)nc1Nc1cccc(-n2nccn2)c1
Method in brief: as §1

[6] = compound: NC1(c2ccc(-c3nc4ccn5c(=O)[nH]nc5c4cc3-c3ccccc3)cc2)CCC1
Method in brief: as §1

[7] = compound: NCC(=O)Nc1ccc(-n2nc(C(F)(F)F)cc2-c2ccc3c(ccc4ccccc43)c2)cc1
Method in brief: as §1

vorinostat = compound: O=C(CCCCCCC(=O)Nc1ccccc1)NO [vorinostat]
Method in brief: as §1

silmitasertib = compound: O=C(O)c1ccc2c(c1)nc(Nc1cccc(Cl)c1)c1ccncc12 [silmitasertib]
Method in brief: as §1

[8] = compound: O=C1NC(=O)C(c2cnc3ccccn23)=C1c1cn2c3c(cc(F)cc13)CN(C(=O)N1CCCCC1)CC2
Method in brief: as §1

entospletinib = compound: c1cn2cc(-c3ccc4cn[nH]c4c3)nc(Nc3ccc(N4CCOCC4)cc3)c2n1 [entospletinib]
Method in brief: as §1

Row | Target | log2 fold change (nilotinib) | log2 fold change [1] | log2 fold change (dasatinib) | log2 fold change [2] | log2 fold change [3] | log2 fold change (quisinostat) | log2 fold change (tipifarnib) | log2 fold change [4] | log2 fold change [5] | log2 fold change [6] | log2 fold change [7] | log2 fold change (vorinostat) | log2 fold change (silmitasertib) | log2 fold change [8] | log2 fold change (entospletinib)
1 | TRMT10C (UniProt Q7L0Y3) | inactive: -0.017 | inactive: 0.054 | inactive: -0.016 | inactive: 0.039 | inactive: 0.014 | inactive: -0.042 | inactive: 0.033 | inactive: 0.022 | inactive: 0.021 | inactive: -0.023 | inactive: 0.024 | inactive: -0.248 | inactive: 0.024 | inactive: 0.014 | inactive: -0.015
2 | TRIM21 (UniProt P19474) | inactive: -0.022 | inactive: 0.079 | inactive: -0.033 | inactive: 0.073 | inactive: 0.044 | inactive: 0.028 | inactive: 0.019 | inactive: 0.044 | inactive: 0.043 | inactive: 0.069 | inactive: 0.068 | inactive: -0.379 | inactive: 0.06 | inactive: 0.024 | inactive: -0.152
3 | TTMP isoform 3 (UniProt Q5BVD1) | inactive: 0.118 | inactive: -0.023 | inactive: -0.079 | inactive: -0.022 | inactive: -0.046 | inactive: -0.475 | inactive: -0.089 | inactive: 0.048 | inactive: 0.116 | inactive: -0.113 | inactive: 0.253 | inactive: 0.191 | inactive: -0.074 | inactive: 0.167 | inactive: -0.032
4 | TST (UniProt Q16762) | inactive: 0.036 | inactive: 0.007 | inactive: -0.012 | inactive: -0.068 | inactive: 0.021 | inactive: 0 | inactive: -0.026 | inactive: 0.061 | inactive: 0.012 | inactive: 0.022 | inactive: 0.002 | inactive: -0.124 | inactive: -0.018 | inactive: -0.036 | inactive: 0.016
5 | TRIM24 (UniProt O15164) | inactive: -0.051 | inactive: -0.015 | inactive: -0.003 | inactive: 0.022 | inactive: 0.025 | inactive: 0.01 | inactive: -0.021 | inactive: 0.022 | inactive: -0.011 | inactive: -0.011 | inactive: 0.01 | inactive: -0.098 | inactive: 0.076 | inactive: -0.083 | inactive: -0.039
6 | TRAPPC4 (UniProt Q9Y296) | inactive: 0.022 | inactive: 0.024 | inactive: -0.035 | inactive: -0.009 | inactive: 0.034 | inactive: -0.046 | inactive: -0.018 | inactive: 0.001 | inactive: 0.009 | inactive: 0.015 | inactive: -0.041 | inactive: -0.168 | inactive: 0.059 | inactive: -0.029 | inactive: -0.03
7 | TRIO (UniProt O75962) | inactive: -0.028 | inactive: -0.038 | inactive: -0.019 | inactive: 0.015 | inactive: -0.02 | inactive: -0.374 | inactive: 0.097 | inactive: -0.098 | inactive: 0.008 | inactive: -0.06 | inactive: 0.024 | inactive: 0.032 | inactive: -0.035 | inactive: 0.073 | inactive: 0.031
8 | TRIM38 (UniProt O00635) | inactive: -0.008 | inactive: -0.036 | inactive: -0.084 | inactive: 0.027 | inactive: 0.056 | inactive: -0.032 | inactive: 0.016 | inactive: -0.017 | inactive: 0.062 | inactive: 0.069 | inactive: 0.037 | inactive: -0.21 | inactive: 0.042 | inactive: -0.045 | inactive: -0.074
9 | TRIM4 (UniProt Q9C037) | inactive: 0.059 | inactive: 0.024 | inactive: -0.142 | inactive: -0.027 | inactive: -0.052 | inactive: -0.035 | inactive: -0.21 | inactive: 0.086 | inactive: 0.019 | inactive: -0.08 | inactive: 0.021 | inactive: -0.144 | inactive: 0.314 | inactive: 0.019 | inactive: 0.054
10 | TTC37 (UniProt Q6PGP7) | inactive: 0.03 | inactive: -0.001 | inactive: -0.163 | inactive: 0.013 | inactive: -0.085 | active: -0.408 | inactive: -0.012 | inactive: 0.065 | inactive: 0.005 | inactive: -0.087 | inactive: 0.136 | inactive: 0.153 | inactive: 0.03 | inactive: 0.046 | –
11 | TRAF4 (UniProt Q9BUZ4) | inactive: -0.02 | inactive: -0.008 | inactive: -0.031 | inactive: 0.022 | inactive: -0.035 | inactive: -0.043 | inactive: 0.132 | inactive: 0.034 | inactive: -0.061 | inactive: 0.029 | inactive: -0.063 | inactive: -0.213 | inactive: 0.125 | inactive: 0.023 | inactive: 0.03
12 | TRAPPC10 (UniProt P48553) | inactive: 0.008 | inactive: 0 | inactive: 0.011 | inactive: -0.003 | inactive: 0.02 | inactive: -0.006 | inactive: 0.011 | inactive: 0.035 | inactive: 0.026 | inactive: -0.05 | inactive: 0.015 | active: -0.248 | inactive: 0.005 | inactive: 0.049 | inactive: 0
13 | TSFM (UniProt P43897) | inactive: -0.013 | inactive: 0.021 | inactive: -0.034 | inactive: -0.028 | inactive: 0.017 | inactive: -0.016 | inactive: 0.002 | inactive: 0.002 | inactive: 0.037 | inactive: -0.026 | inactive: 0.002 | active: -0.261 | inactive: 0.043 | inactive: 0.035 | inactive: -0.014
14 | TRAFD1 (UniProt O14545) | inactive: 0.036 | inactive: 0.041 | inactive: -0.064 | inactive: 0.005 | inactive: -0.071 | inactive: 0.016 | inactive: -0.012 | inactive: -0.028 | inactive: 0.017 | inactive: -0.03 | inactive: -0.021 | inactive: 0.029 | inactive: 0.029 | inactive: -0.01 | inactive: -0.035
15 | TSNAX (UniProt Q99598) | inactive: -0.006 | inactive: 0.02 | inactive: 0.008 | inactive: -0.01 | inactive: 0.023 | inactive: -0.007 | inactive: -0.007 | inactive: -0.005 | inactive: -0.012 | inactive: 0.017 | inactive: -0.008 | inactive: 0.097 | inactive: 0.007 | inactive: -0.037 | inactive: 0.012
16 | TRAPPC2L (UniProt Q9UL33) | inactive: -0.024 | inactive: 0.163 | inactive: -0.028 | inactive: -0.046 | inactive: 0.029 | inactive: -0.024 | inactive: -0.073 | inactive: 0.004 | inactive: 0.001 | inactive: 0.016 | inactive: -0.054 | inactive: -0.014 | inactive: -0.024 | inactive: 0.023 | inactive: -0.005
17 | TRIM28 (UniProt Q13263) | inactive: 0.02 | inactive: -0.021 | inactive: -0.005 | inactive: -0.006 | inactive: -0.002 | inactive: -0.001 | inactive: 0.013 | inactive: 0.005 | inactive: -0.014 | inactive: 0.003 | inactive: 0.005 | inactive: 0.053 | inactive: -0.009 | inactive: 0.003 | inactive: 0.012
18 | TSC1 (UniProt Q92574) | inactive: 0.006 | inactive: -0.076 | inactive: -0.003 | inactive: 0.06 | inactive: 0.065 | inactive: 0.02 | inactive: -0.046 | inactive: 0.009 | inactive: 0.048 | inactive: 0.072 | inactive: 0.055 | inactive: -0.044 | inactive: -0.03 | inactive: -0.001 | inactive: -0.033
19 | TTC9C (UniProt Q8N5M4) | inactive: -0.035 | inactive: 0.041 | inactive: 0.052 | inactive: 0.098 | inactive: -0.048 | inactive: 0.193 | inactive: 0.072 | inactive: -0.001 | inactive: -0.001 | inactive: 0.012 | inactive: 0.036 | inactive: -0.018 | inactive: 0 | inactive: -0.007 | inactive: 0.005

Two entries drawn at random from the list so far:
Row | Target | log2 fold change (nilotinib) | log2 fold change [1] | log2 fold change (dasatinib) | log2 fold change [2] | log2 fold change [3] | log2 fold change (quisinostat) | log2 fold change (tipifarnib) | log2 fold change [4] | log2 fold change [5] | log2 fold change [6] | log2 fold change [7] | log2 fold change (vorinostat) | log2 fold change (silmitasertib) | log2 fold change [8] | log2 fold change (entospletinib)
1 | TRMT10C (UniProt Q7L0Y3) | inactive: -0.017 | inactive: 0.054 | inactive: -0.016 | inactive: 0.039 | inactive: 0.014 | inactive: -0.042 | inactive: 0.033 | inactive: 0.022 | inactive: 0.021 | inactive: -0.023 | inactive: 0.024 | inactive: -0.248 | inactive: 0.024 | inactive: 0.014 | inactive: -0.015
10 | TTC37 (UniProt Q6PGP7) | inactive: 0.03 | inactive: -0.001 | inactive: -0.163 | inactive: 0.013 | inactive: -0.085 | active: -0.408 | inactive: -0.012 | inactive: 0.065 | inactive: 0.005 | inactive: -0.087 | inactive: 0.136 | inactive: 0.153 | inactive: 0.03 | inactive: 0.046 | –
